The target of the assay is T1, GST–Rab40b (UniProt Q12829).
T1 sequence: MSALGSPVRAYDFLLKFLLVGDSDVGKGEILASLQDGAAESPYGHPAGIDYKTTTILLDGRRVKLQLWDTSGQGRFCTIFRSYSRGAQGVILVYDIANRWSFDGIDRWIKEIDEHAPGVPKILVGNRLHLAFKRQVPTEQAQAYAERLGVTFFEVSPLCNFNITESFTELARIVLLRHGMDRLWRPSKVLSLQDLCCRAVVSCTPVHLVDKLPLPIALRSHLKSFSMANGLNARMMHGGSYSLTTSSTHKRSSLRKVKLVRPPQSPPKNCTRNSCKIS
In words: affinity purification with mass spectrometry; MDA-MB-231 cell lysates incubated with GST or GST–Rab40b-coated beads (affinity column); bound proteins analysed by mass spectrometry; only the target purified.

Results are given in words; binding and its absence hold for the method and conditions named. In cells and extracts the contact can be indirect. Here binding means that the protein was enriched with, or labelled near, the bait; the list need not be complete. Tags and fused reporters may be left off the sequences shown.

B1: Tks5 (tyrosine kinase substrate 5) (protein, UniProt Q5TCZ1 1-1133)
chain: MLAYCVQDATVVDVEKRRNPSKHYVYIINVTWSDSTSQTIYRRYSKFFDLQMQLLDKFPIEGGQKDPKQRIIPFLPGKILFRRSHIRDVAVKRLKPIDEYCRALVRLPPHISQCDEVFRFFEARPEDVNPPKEDYGSSKRKSVWLSSWAESPKKDVTGADATAEPMILEQYVVVSNYKKQENSELSLQAGEVVDVIEKNESGWWFVSTSEEQGWVPATYLEAQNGTRDDSDINTSKTGEVSKRRKAHLRRLDRRWTLGGMVNRQHSREEKYVTVQPYTSQSKDEIGFEKGVTVEVIRKNLEGWWYIRYLGKEGWAPASYLKKAKDDLPTRKKNLAGPVEIIGNIMEISNLLNKKASGDKETPPAEGEGHEAPIAKKEISLPILCNASNGSAVGVPDRTVSRLAQGSPAVARIAPQRAQISSPNLRTRPPPRRESSLGFQLPKPPEPPSVEVEYYTIAEFQSCISDGISFRGGQKAEVIDKNSGGWWYVQIGEKEGWAPASYIDKRKKPNLSRRTSTLTRPKVPPPAPPSKPKEAEEGPTGASESQDSPRKLKYEEPEYDIPAFGFDSEPELSEEPVEDRASGERRPAQPHRPSPASSLQRARFKVGESSEDVALEEETIYENEGFRPYAEDTLSARGSSGDSDSPGSSSLSLTRKNSPKSGSPKSSSLLKLKAEKNAQAEMGKNHSSASFSSSITINTTCCSSSSSSSSSLSKTSGDLKPRSASDAGIRGTPKVRAKKDADANAGLTSCPRAKPSVRPKPFLNRAESQSQEKMDISTLRRQLRPTGQLRGGLKGSKSEDSELPPQTASEAPSEGSRRSSSDLITLPATTPPCPTKKEWEGPATSYMTCSAYQKVQDSEISFPAGVEVQVLEKQESGWWYVRFGELEGWAPSHYLVLDENEQPDPSGKELDTVPAKGRQNEGKSDSLEKIERRVQALNTVNQSKKATPPIPSKPPGGFGKTSGTPAVKMRNGVRQVAVRPQSVFVSPPPKDNNLSCALRRNESLTATDGLRGVRRNSSFSTARSAAAEAKGRLAERAASQGSDSPLLPAQRNSIPVSPVRPKPIEKSQFIHNNLKDVYVSIADYEGDEETAGFQEGVSMEVLERNPNGWWYCQILDGVKPFKGWVPSNYLEKKN
In the case of B1, the binding result was “binds”.

Values taken from publication PMC5201011 (2016).
